Results as given in PMC6199744, “Development of Chemical Proteomics for the Folateome and Analysis of the Kinetoplastid Folateome” (ACS Infectious Diseases, 2018).
The source gives many values for each of these; only a part stands here.

Tested on: L. major lysate proteins
Experiment: Multitargeted bead mixture chemoproteomics, single concentration competition, proteome-wide
Format: binding
Details: for fold change: vehicle control = 1

## Nc1nc2cccc(-c3ccccc3)c2n1Cc1ccc(Cl)c(Cl)c1 [compound 3]
Protein LMJF.28.2460 RIBOSOMAL PROTEIN S29, PUTATIVE
  fold change: 1.32
Protein LMJF.28.2750 ACTIVATED PROTEIN KINASE C RECEPTOR (LACK)
  fold change: 0.97
Protein LMJF.29.0120 […]-ATPASE SUBUNIT, PUTATIVE
  fold change: 1.05
Protein LMJF.29.0760 […] BI[…], PUTATIVE,HEAT SHOCK PROTEIN 90, PUTATIVE
  fold change: 0.93
Protein LMJF.29.1240 HY[…], UNKNOWN FUNCTION
  fold change: 1.06
Protein LMJF.29.1270 100 kDa heat shock protein (Hsp100)
  fold change: 0.99
Protein LMJF.30.0120 […] SYNTHASE
  fold change vs vehicle control: 0.97
Protein LMJF.30.0750 4-METHYL-5(BETA-HYDROXYETHYL)-THIAZOLE MON[…] PROTEIN, PUTATIVE
  fold change: 0.93
Protein LMJF.30.2330 HY[…], UNKNOWN FUNCTION
  fold change: 0.93
Protein LMJF.30.2550 HEAT SHOCK 70-RELATED PROTEIN 1, MIT[…], PUTATIVE
  fold change: 1.09
Protein LMJF.30.3090 HY[…], CONSERVED
  fold change: 0.97
Protein LMJF.30.3130 VALYL-TRNA SYNTHETASE, PUTATIVE
  fold change: 0.96
Protein LMJF.30.3430 HY[…], CONSERVED
  fold change: 0.98
Protein LMJF.30.3600 ATP SYNTHASE, EPSILON CHAIN, PUTATIVE
  fold change vs vehicle control: 0.97
Protein LMJF.30.3730 60S ACIDIC RIBOSOMAL PROTEIN P2, PUTATIVE
  fold change: 1
Protein LMJF.32.0050 PROTEIN TRANSPORT PROTEIN SEC13, PUTATIVE
  fold change: 1.06
Protein LMJF.32.0750 RNA BINDING PROTEIN, PUTATIVE
  fold change: 1.14
Protein LMJF.32.1060 DYNEIN, PUTATIVE
  fold change vs vehicle control: 1.02
Protein LMJF.32.2800 HY[…], CONSERVED
  fold change: 1.26
Protein LMJF.32.3270 […] SUBUNIT, PUTATIVE
  fold change: 1
Protein LMJF.32.3310 DIHYDROLIPOAMIDE DEHYDROGENASE, PUTATIVE
  fold change: 1.09
Protein LMJF.32.3640 HY[…], CONSERVED
  fold change: 1.09
Protein LMJF.33.0240 THIOL-DEPENDENT REDUCTASE 1
  fold change: 0.89
Protein LMJF.33.0830 2,4-DIENOYL-COA REDUCTASE FADH1, PUTATIVE
  fold change: 0.8
Protein LMJF.33.1590 HY[…], CONSERVED
  fold change: 1.36
Protein LMJF.33.1750 […] […]-LIKE PROTEIN
  fold change: 0.93
Protein LMJF.33.2060 HY[…], CONSERVED
  fold change: 0.91
Protein LMJF.33.2270 HY[…], CONSERVED
  fold change: 1.11
Protein LMJF.33.2340 SUCCINYL-COA:3-KETOACID-COENZYME A TRANSFERASE, MIT[…], PUTATIVE
  fold change: 0.96
Protein LMJF.33.2540 CARBOXYPEPTIDASE, PUTATIVE,METALLO-PEPTIDASE, CLAN MA(E), FAMILY M32
  fold change: 0.93
Protein LMJF.34.0140 MALATE DEHYDROGENASE
  fold change: 2.17
Protein LMJF.34.0840 T[…] 1-BETA, PUTATIVE
  fold change: 1.05
Protein LMJF.34.0930 HY[…], CONSERVED
  fold change: 0.96
Protein LMJF.34.2340 ASPARAGINYL-TRNA SYNTHETASE, PUTATIVE
  fold change: 0.84
Protein LMJF.34.2580 HY[…], CONSERVED
  fold change vs vehicle control: 1.1
Protein LMJF.34.3250 PUTATIVE PYRUVATE/INDOLE-PYRUVATE CARBOXYLASE, PUTATIVE
  fold change: 0.91
Protein LMJF.35.0070 PROHIBITIN, PUTATIVE
  fold change: 1.11
Protein LMJF.35.0240 60S RIBOSOMAL PROTEIN L30
  fold change: 1.03
Protein LMJF.35.0360 ENOYL-COA HYDRATASE/ISOMERASE FAMILY PROTEIN, CONSERVED
  fold change: 1.13
Protein LMJF.35.0820 ASPARTATE AMINOTRANSFERASE, PUTATIVE
  fold change: 0.94
Protein LMJF.35.1220 SHORT CHAIN DEHYDROGENASE, PUTATIVE
  fold change: 1.28
Protein LMJF.35.1230 SHORT CHAIN DEHYDROGENASE, PUTATIVE
  fold change: 1.11
Protein LMJF.35.3080 GLYCEROL KINASE, GLYCOSOMAL, PUTATIVE
  fold change: 1.11
Protein LMJF.35.3230 C[…] LYASE, PUTATIVE
  fold change: 1.07
Protein LMJF.35.4420 MIT[…] TRANSPORTER, PUTATIVE
  fold change: 1.16
Protein LMJF.36.0070 STRESS-INDUCIBLE PROTEIN STI1 HOMOLOG
  fold change: 0.92
Protein LMJF.36.0210 SET DOMAIN PROTEIN, PUTATIVE
  fold change: 1
Protein LMJF.36.0320 […] 2 SUBUNIT, PUTATIVE
  fold change: 0.99
Protein LMJF.36.0930 40S RIBOSOMAL PROTEIN S18, PUTATIVE
  fold change: 1.32
Protein LMJF.36.1260 FRUCTOSE-1,6-BI[…]
  fold change: 1.12
Protein LMJF.36.1430 T[…] 1-BETA, PUTATIVE
  fold change: 1.54
Protein LMJF.36.1600 […] 1 SUBUNIT, PUTATIVE
  fold change: 1.01
Protein LMJF.36.1650 […] 5 SUBUNIT, PUTATIVE
  fold change: 0.86
Protein LMJF.36.2030 CHAPERONIN HSP60, MIT[…]
  fold change: 1.12
Protein LMJF.36.2160 HY[…], CONSERVED
  fold change: 0.96
Protein LMJF.36.2750 ACETYLTRANSFERASE-LIKE PROTEIN
  fold change: 1.02
Protein LMJF.36.2950 SUCCINYL-COA LIGASE GDP-FORMING] BETA-CHAIN, PUTATIVE
  fold change: 1.05
Protein LMJF.36.3210 14-3-3 PROTEIN-LIKE PROTEIN
  fold change: 0.86
Protein LMJF.36.3410 SHORT CHAIN DEHYDROGENASE-LIKE PROTEIN
  fold change: 1.26
Protein LMJF.36.3530 POLYUBIQUITIN, PUTATIVE
  fold change: 0.99
Protein LMJF.36.4420 60S RIBOSOMAL PROTEIN L22, PUTATIVE
  fold change: 1.12
Protein LMJF.36.4460 HY[…], CONSERVED
  fold change: 1.03
Protein LMJF.36.6540 […] ENDO-1-LIKE PROTEIN
  fold change: 1.19
